Source: PubChem BioAssay AID1671190 (National Center for Advancing Translational Sciences (NCATS), 2021)
The whole screen tested about 580,000 compounds, of which about 6,100 (1.1%) were called active. The shares of active, inactive and inconclusive entries below differ from those in the screen. The call rests on the fitted dose curve; in most records, active means well fitted inhibition curve with a large enough effect; inconclusive means small, poorly fitted or top-dose-only effect, or another doubt; inactive means no such curve, though single readings can be large or run the other way. A potency beside an inconclusive call is a rough fit, not a confirmed value.

Protein sequences, listed by entry. Tags and fused reporters are not part of them. Lines headed by an entry give the natural chain unless they say otherwise; changes in a name come on top.
UniProt P18054: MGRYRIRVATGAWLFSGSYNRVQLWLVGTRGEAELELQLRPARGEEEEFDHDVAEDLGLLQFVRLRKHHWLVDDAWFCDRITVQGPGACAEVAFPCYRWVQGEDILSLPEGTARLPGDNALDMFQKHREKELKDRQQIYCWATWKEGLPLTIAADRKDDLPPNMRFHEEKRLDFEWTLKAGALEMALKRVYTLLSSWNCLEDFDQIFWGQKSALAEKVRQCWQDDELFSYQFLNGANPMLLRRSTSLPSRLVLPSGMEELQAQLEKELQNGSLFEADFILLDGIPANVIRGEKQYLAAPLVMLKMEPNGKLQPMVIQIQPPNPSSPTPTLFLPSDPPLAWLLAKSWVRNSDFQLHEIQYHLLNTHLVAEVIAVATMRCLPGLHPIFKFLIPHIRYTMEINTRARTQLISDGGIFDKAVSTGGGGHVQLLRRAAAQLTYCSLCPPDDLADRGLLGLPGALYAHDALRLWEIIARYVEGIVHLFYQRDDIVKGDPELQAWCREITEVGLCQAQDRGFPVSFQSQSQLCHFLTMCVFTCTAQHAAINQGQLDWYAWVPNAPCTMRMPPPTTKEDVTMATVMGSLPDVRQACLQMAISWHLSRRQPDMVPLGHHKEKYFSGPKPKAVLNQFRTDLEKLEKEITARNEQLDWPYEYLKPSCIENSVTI

Target: Polyunsaturated fatty acid lipoxygenase ALOX12 (Homo sapiens) (UniProt P18054)
Assay: Primary qHTS assay for inhibitors of human arachidonate 12S-lipoxygenase (ALOX12): Round 2
Conditions: purified 12hLO, xylenol orange hydroperoxide absorbance; activity change, negative = inhibition: at 108 µM (top of the series) unless noted
Outline: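 Purified human 12hLO (150 nM final) in 25 mM Hepes, 0.01% Triton X-100, pH 7.0 was preincubated 15 min at room temperature with compound. Then 40 uM arachidonic acid was added, 30 min. Hydroperoxide was read by Fe-XO absorbance ratio 573/405 nm.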
On the % scale 0 is the no-effect control and ±100 the full control effect; potency means the concentration at half of the fitted maximal effect.

SMILES | activity change, negative = inhibition | Potency
CC(=O)c1c(C)nn(C(C)CC(=O)O)c1C (configuration not stated) | inconclusive: -30.2% [inhibitor] | –
CC(C)C(=O)Nc1nc2ccc(CCC(=O)N3CCN(c4ccc(Cl)cc4)CC3)cc2s1 | – | inactive
CCN1CCN(Cc2ccc(NC(=O)c3cc(NC(=O)c4ccc5n[nH]nc5c4)cc(OC)c3)cc2C(F)(F)F)CC1 | – | inactive
COc1c(Cl)cc(C(=O)Nc2cccnc2)cc1Cl | – | inconclusive: 39.8 µM [inhibitor, partial curve, poor fit]
COc1ccccc1N1CCN(CCCNC(=O)c2cnn(-c3ccc(C)c(C)c3)c2C2CCN(C(=O)OC(C)(C)C)CC2)CC1 | – | inconclusive: 89.1 µM [inhibitor, partial curve, poor fit]
COC(=O)[C@H](CC(C)C)N1Cc2cc(OC)cc(OC)c2-c2ccccc2S1(=O)=O | – | active: 25.1 µM
Cc1cc(C(=O)COC(=O)c2nccnc2N)c(C)n1CCc1cccs1 | – | inconclusive: 31.6 µM [inhibitor, single point]
COc1cc(OC)c2cc(-c3ccncc3)cnc2c1 | – | inconclusive: 35.5 µM [inhibitor, partial curve, poor fit]
COc1ccc(-c2nc3cc(NC(=O)c4cccc(Br)c4)ccc3o2)cc1 | – | inconclusive: 12.6 µM [inhibitor, partial curve, poor fit]
Cc1nn(C(=O)CCCC(=O)N2CCC(CCOc3ccccc3)C2)c2ccccc12 (configuration not stated) | – | inconclusive: 70.8 µM [inhibitor, partial curve]
O=C(NC[C@H]1O[C@@H](CO)[C@@H](O)[C@H]1N1CCN(c2ccccn2)CC1)Nc1ccccc1 | – | inconclusive: 8.91 µM [inhibitor, full curve, poor fit]
O=C(CCC1CCN(S(=O)(=O)c2ccc(F)cc2)CC1)NCc1nc2ccccc2[nH]1 | – | inactive
CCCC1=C(C(=O)OCC)C(c2cccs2)C(C#N)=C(N)O1 (configuration not stated) | – | inconclusive: 39.8 µM [inhibitor, partial curve, poor fit]
O=C(O)c1cccc(-n2c(/C=C/c3ccc([N+](=O)[O-])cc3)nc3ccccc3c2=O)c1 | – | inconclusive: 4.47 µM [inhibitor, full curve, poor fit]
Cc1cc(S(=O)(=O)N2CCN(C(=O)c3ccc(-n4cccc4)cc3)CC2)ccc1Br | – | inconclusive: 44.7 µM [inhibitor, single point]
COC(=O)c1ccccc1-c1ccc(/C=C(/C#N)c2nc3ccc(C)cc3[nH]2)o1 | – | inconclusive: 31.6 µM [inhibitor, single point]
CCc1cccc(NS(=O)(=O)c2ccc3c(c2)N(C)CCO3)c1 | – | inactive
COc1ccc(N(CC(=O)N2CCc3ccccc3C2)S(C)(=O)=O)cc1Cl | – | inconclusive: 44.7 µM [inhibitor, partial curve, poor fit]
COc1ccccc1CNC(=O)c1cnc2c(-c3ccccc3)c(C)nn2c1C | – | inactive
Cn1c(=O)cc(SCC(=O)NCCC2=CCCCC2)c2ccc(Cl)cc21 | – | inactive
CC(=O)Nc1ccc2c(C(C(=O)O)N3CCN(c4nc5c(cc4C#N)CCCC5)CC3)c[nH]c2c1 (configuration not stated) | – | inactive
CCOC(=O)CSC1=NC(=O)CS1 | – | inactive
Cc1c(C)n(CCCN(C)C)c2ncn3nc(COc4cccc5ccccc45)nc3c12 | – | inconclusive: 56.2 µM [inhibitor, partial curve, poor fit]

SMILES | activity change, negative = inhibition | Potency
Cc1c(C)c2cc3c(c(C)c2oc1=O)OCN(CCc1ccccc1)C3 | – | inactive
CCOc1ccc(C(=O)c2ccncc2)cc1 | – | inactive
O=C(O)COc1ccccc1/C=N/NC(=O)CSc1nc2ccccc2s1 | – | inconclusive: 3.16 µM [inhibitor, full curve, poor fit]
CCN(CC)C(=O)CSc1nc(OC)cc(=O)[nH]1 | – | inconclusive: 50.1 µM [inhibitor, partial curve, poor fit]
Cn1nc(NC(=O)C2CCS(=O)(=O)C2)c2c(Oc3cccnc3)cccc21 (configuration not stated) | – | inconclusive: 112 µM [inhibitor, partial curve, poor fit]
CCOC(=O)c1c(C)c(C(=O)Nc2cccc(Cl)c2C)c(C)n1C | – | inactive
CC(C)Cc1nnc(NC(=O)C2=COCCO2)s1 | – | inconclusive: 25.1 µM [inhibitor, single point]
Brc1ccccc1-n1nnc(-c2nccs2)n1 | – | inconclusive: 44.7 µM [inhibitor, partial curve, poor fit]
CN1CCN(CCNC(=O)c2ccc(-c3ccc(N4CCCCCC4)nc3)cc2)CC1 | – | inconclusive: 89.1 µM [inhibitor, single point]
Cc1ccc(Cc2c(-c3ccc(F)cc3)nc3cc(C)ccn23)cc1 | – | active: 20 µM
CSc1sc(C)cc1C1C(C#N)=C(N)N(c2cccnc2)C2=C1C(=O)CCC2 (configuration not stated) | – | inconclusive: 50.1 µM [inhibitor, partial curve, poor fit]
CS(=O)(=O)c1ccc([C@@H](O)[C@@H](CF)NC(=O)C(Cl)Cl)cc1 | – | inactive
O=C(C1=C[C@H](c2csc3ccccc23)C[C@H](OCCCCO)O1)N1CCN(Cc2ccc3c(c2)OCO3)CC1 | – | inconclusive: 0.447 µM [inhibitor, full curve, poor fit]
Cc1cc2nc(C3CCCCC3)c(Cc3ccsc3)n2c(C)c1Br | – | inconclusive: 6.31 µM [inhibitor, full curve, poor fit]
COc1ccc2cc1Nc1ccc(cc1)C[C@H](NCC1CC1)C(=O)N(C)[C@@H](C(=O)NCc1ccccc1)C2 | – | inconclusive: 56.2 µM [inhibitor, full curve, poor fit]
Cc1csc2nc(O)c(C(=O)NC3CCCCC3)c(=O)n12 | – | inconclusive: 35.5 µM [inhibitor, partial curve, poor fit]
Cc1ccc2nsnc2c1NC(=O)c1ccc(-c2cc(Cl)ccc2Cl)o1 | – | inconclusive: 44.7 µM [inhibitor, partial curve, poor fit]
COc1cc(C2OC(=O)c3ccccc3S2)cc(OC)c1OC (configuration not stated) | – | inconclusive: 1.26 µM [inhibitor, partial curve, poor fit]
COc1cccc(Nc2nc(-c3ccc(CNC(=O)C(C)(C)C)s3)cs2)c1 | – | inconclusive: 31.6 µM [inhibitor, partial curve, poor fit]
CC(=O)Nc1ccc(C(C)=NNC(=O)C2CCCC2)cc1 | – | inactive
Cc1cc(C)c2c(C(=O)O)cc(-c3cccnc3)nc2c1 | – | inactive
N#Cc1ccc(OCC(=O)Nc2ccncc2)cc1 | – | inconclusive: 44.7 µM [inhibitor, partial curve, poor fit]
CC(=O)Oc1ccc(/C=c2\sc3ncnn3c2=O)cc1 | – | inactive

SMILES | activity change, negative = inhibition | Potency
COC(=O)[C@@H]1Cc2ncn(Cc3ccc(Cl)cc3)c2CN1S(=O)(=O)c1cccc2c(N(C)C)cccc12 | – | inactive
Cc1cc2c(c(=O)o1)[C@@]1(C(=O)N(c3ccccc3)c3ccccc31)C1=C(CCCC1=O)O2 | – | inactive
CC(C)NC(=O)c1ccc2c(c1)N(Cc1cccc(Cl)c1)C(=O)c1ccccc1S2=O (configuration not stated) | – | inconclusive: 56.2 µM [inhibitor, partial curve, poor fit]
c1ccc(-c2ccc(-c3ccn[nH]3)cc2)cc1 | – | inconclusive: 8.91 µM [inhibitor, full curve, poor fit]
CSc1ccccc1OCc1cc(C(=O)N2CCN(Cc3nccn3C)CC2)no1 | – | inactive
CCCCCCCCCCOc1ccc(C(=O)OCC(=O)c2ccc(Cl)cc2)cc1 | – | inactive
O=C(Nc1cccc(C(F)(F)F)c1)C1CCCN1c1ncnc2ccccc12 (configuration not stated) | – | inactive
COc1ccc(S(=O)(=O)N2CCN(Cc3ccccc3)CC2)c(C)c1 | – | inactive
COc1cc(NC(=S)NCCCN2CCOCC2)cc(OC)c1OC | – | inactive
CN1CCN(/N=C/c2c3ccccc3c(Cl)c3ccccc23)CC1 | – | inconclusive: 50.1 µM [inhibitor, partial curve, poor fit]
COC(=O)c1cc(-c2cccnc2)nc2onc(-c3ccc(C)cc3)c12 | – | inconclusive: 0.398 µM [inhibitor, full curve, poor fit]
O=C(c1cc(C(F)(F)F)cc(C(F)(F)F)c1)N1CCC2(CCN(Cc3ccncc3)CC2)CC1 | – | inactive
CN(Cc1ccccc1)C1CCN(Cc2ccc(F)cc2)CC1 | – | inconclusive: 0.398 µM [inhibitor, full curve, poor fit]
COC(=O)c1sc2c(c1C)c(=O)n(-c1ccccc1)c(=O)n2CC(=O)Nc1cccc(C)c1 | – | inconclusive: 20 µM [inhibitor, partial curve, poor fit]
CC(=O)N1CCc2nn(CC(=O)N3CCN(c4ccccc4)CC3)c(=O)cc2C1 | – | inactive
COc1cccc(NC(=O)Cc2nnc(SCCOc3ccccc3)n2C)c1 | – | inconclusive: 0.251 µM [inhibitor, full curve, poor fit]
CCN1CCN(c2ccc(NC(=O)CCc3c(C)nc4c(-c5ccc(F)cc5)c(C)nn4c3C)cc2)CC1 | – | inconclusive: 89.1 µM [inhibitor, single point]
CCOC(=O)c1ccc(NC(=O)N2Cc3[nH]cnc3C[C@H]2c2nc(-c3ccc(Cl)cc3)no2)cc1 | – | inactive
COC(=O)COn1c(SCC(=O)OC)nc2ccccc2c1=O | – | inconclusive: 56.2 µM [inhibitor, partial curve, poor fit]
CC(=O)Nc1ccc(NC(=O)COc2ccc(S(=O)(=O)N3CCCC3)cc2C)cc1 | – | inconclusive: 126 µM [inhibitor, single point]
Cc1ccc(Cl)cc1N1CCN(S(=O)(=O)c2c(C)[nH]c(C)c2C(=O)N2CCCC2)CC1 | – | inconclusive: 44.7 µM [inhibitor, partial curve, poor fit]

Structural class: the entries above containing a COOH group.
SMILES | activity change, negative = inhibition | Potency
CC(=O)c1c(C)nn(C(C)CC(=O)O)c1C (configuration not stated) | inconclusive: -30.2% [inhibitor] | –
O=C(O)c1cccc(-n2c(/C=C/c3ccc([N+](=O)[O-])cc3)nc3ccccc3c2=O)c1 | – | inconclusive: 4.47 µM [inhibitor, full curve, poor fit]
CC(=O)Nc1ccc2c(C(C(=O)O)N3CCN(c4nc5c(cc4C#N)CCCC5)CC3)c[nH]c2c1 (configuration not stated) | – | inactive
O=C(O)COc1ccccc1/C=N/NC(=O)CSc1nc2ccccc2s1 | – | inconclusive: 3.16 µM [inhibitor, full curve, poor fit]
Cc1cc(C)c2c(C(=O)O)cc(-c3cccnc3)nc2c1 | – | inactive
